# Results reported in PMC9958909.
# Residue numbers refer to the chain shown, from its start. For part of these data: A negative result means that nothing was seen under these conditions. For part of these data: At least one verdict rests on a figure or table, not on a statement of the authors. For part of these data: Protein sequences can lack the tags named with them. For part of these data: A weaker result is weaker than the reference pair of the same experiment. For part of these data: For at least one entry, the source does not settle the construct or the ends of the probe.
# Assays:
# [1] = target: T1, SAFB2 SAP R45A (Homo sapiens) (UniProt Q14151); assay: NMR titration; details: 6x DNA, minor CSPs, likely non-specific, protein unfolded; NMR: 20 mM BisTris, 150 mM NaCl, pH 6.5, 5% D2O, 298 K (RRM plus 2 mM TCEP); recombinant protein; residues 21-70; protein details: N-terminal GAM left after TEV cleavage
# T1 sequence (looked up): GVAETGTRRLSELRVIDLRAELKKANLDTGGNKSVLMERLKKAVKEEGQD
# [2] = target: SAFB2 SAP S31A (Homo sapiens) (UniProt Q14151); assay: NMR titration; details: 8x DNA; NMR: 20 mM BisTris, 150 mM NaCl, pH 6.5, 5% D2O, 298 K (RRM plus 2 mM TCEP); recombinant protein; residues 21-70; protein details: N-terminal GAM left after TEV cleavage
# [3] = target: T2, SAFB2 RRM (404-485) (Homo sapiens) (UniProt Q14151); assay: NMR titration; details: NMR: 20 mM BisTris, 150 mM NaCl, pH 6.5, 5% D2O, 298 K (RRM plus 2 mM TCEP), recombinant protein, residues 404-485
# T2 sequence (looked up): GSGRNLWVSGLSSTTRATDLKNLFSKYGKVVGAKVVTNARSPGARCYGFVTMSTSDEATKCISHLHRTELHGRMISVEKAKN
# [4] = target: T3, SAFB2 SAP WT (21-70) (Homo sapiens) (UniProt Q14151); assay: EMSA; details: 0-40 uM SAP, EMSA: 25 mM sodium phosphate, 150 mM NaCl, 0.02% NaN3, pH 6.5, 10 mM MgCl2, 0.6 ug yeast tRNA, 0.1 pmol DNA in 20 uL, temperature not stated, recombinant protein, residues 21-70
# T3 sequence (looked up): T1 sequence (looked up) with A25R
# [5] = target: T3, SAFB2 SAP WT (21-70) (Homo sapiens); assay: NMR titration; details: NMR: 20 mM BisTris, 150 mM NaCl, pH 6.5, 5% D2O, 298 K (RRM plus 2 mM TCEP), recombinant protein, residues 21-70
# [6] = target: SAFB2 SAP S31A (Homo sapiens) (UniProt Q14151); assay: EMSA; details: up to 40 uM, only slightly impaired; EMSA: 25 mM sodium phosphate, 150 mM NaCl, 0.02% NaN3, pH 6.5, 10 mM MgCl2, 0.6 ug yeast tRNA, 0.1 pmol DNA in 20 uL; temperature not stated; recombinant protein; residues 21-70; protein details: N-terminal GAM left after TEV cleavage; label: 5'-6-FAM on fw strand
# [7] = exclusively binds dsDNA, label: 5'-6-FAM, single-stranded DNA
sequence,measurement,setting,value
CAATATAAC (double strand) [dsAT9mer],binding result,[1],binds more weakly
same,binding result,[2],binds more weakly
UACACC [En+],binding result,[3]; lower CSPs than A7 and C7,binds more weakly
GCCCCCGCGCCCG (double strand) [dsGC13mer],binding result,"[4]; yeast tRNA, 10 mM MgCl2, slightly less preferred than AT, label: 5'-6-FAM on fw strand",binds
CGCCCCCGCGCCCGCG (double strand) [dsGC16mer],binding result,"[5]; same trajectories, lower maximum CSP than AT16mer",binds more weakly
GCGCACAATATAACGC [ssAT16mer],binding result,"[3]; CSPs equal to A7/C7, single-stranded DNA",binds
same,binding result,[5]; single-stranded DNA,no binding
UUUUUUU [U7],binding result,[3]; least-preferred motif,binds more weakly
GCCCCCGCGCCCG [ssGC13mer],binding result,[4]; [7],no binding
GCAATAAATACG (double strand) [dsAT13mer],binding result,[6],binds more weakly
GCAATAAATACG [ssAT13mer],binding result,[4]; [7],no binding
CGGACU [En-],binding result,[3]; lower CSPs than A7 and C7,binds more weakly
